Reference: article PMC4939300

The chains behind the UniProt entries cited, without tags or fusion partners.
UniProt P08515, whole entry: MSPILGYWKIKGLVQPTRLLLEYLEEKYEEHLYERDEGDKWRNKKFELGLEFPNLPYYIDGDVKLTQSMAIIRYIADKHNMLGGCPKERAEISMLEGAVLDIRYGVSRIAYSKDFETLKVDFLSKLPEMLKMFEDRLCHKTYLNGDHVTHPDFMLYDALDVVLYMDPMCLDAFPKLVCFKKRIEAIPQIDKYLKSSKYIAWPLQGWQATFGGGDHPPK

What follows are sequences tested on GST-MaDEAR1 (assay: EMSA). Details: EMSA kit (Thermo) per manufacturer; 2e-6 umol biotin probe; unlabeled self-competitor 2e-5 to 2e-3 umol; 6% native PAGE; pH and temperature not stated; recombinant protein; protein details: N-terminal GST (pGEX-4T-1); label: 3' biotin.
“CAGCCGTTGGTATCTCATCGTACCGACCACGTTGCAGACACAGCTATG (double strand) [MaEXP3 promoter probe]”: binds. “CCCGCAACAACGTTGCAGATGCACCGACCTCATTCAATTCGTGGGGAAGA (double strand) [MaPG1 promoter probe]”: binds. “CCGCGTCGGTTCATGTGATGTGGATCACGTACAGTTTGCGAGGACGAGCGTCGGCGGCC (double strand) [MaPL3 promoter probe]”: binds. “TATAAGGCTTCCGACAAAGCCGACTACTCAACCGAACCGATCCGAAGAGTCCCGTG (double strand) [MaXTH10 promoter probe]”: binds. “TCCTTCTTCTTCTTCTTCTTCTGCCGACCTCGTCCCACCTCCGAACTGCA (double strand) [MaPME3 promoter probe]”: binds. “TCTTCCTCGCCACGTGAAGACGTCGGCAGCCCGGAACAGCATGTGCTC (double strand) [MaEXP1 promoter probe]”: binds.

Each sequence was assayed against GST (UniProt P08515) (assay: EMSA). Details: EMSA kit (Thermo) per manufacturer; 2e-6 umol biotin probe; unlabeled self-competitor 2e-5 to 2e-3 umol; 6% native PAGE; pH and temperature not stated; recombinant protein; protein details: GST only; label: 3' biotin.
“TCTTCCTCGCCACGTGAAGACGTCGGCAGCCCGGAACAGCATGTGCTC (double strand) [MaEXP1 promoter probe]”: no binding.

Construct, isoform or probe ends are uncertain for at least one entry. For some of these results: No signal at the amounts used counts as a negative. For some of these results: At least one verdict was read from the data and is not stated in words by the source.
